Measured values: patent US20130102009A1, “SIRTUIN ACTIVATORS AND ACTIVATION ASSAYS” (priority 2010, published 2013)
A number of entries come with more than one value. This is not the full list of results. An entry can have further records. Values that stand side by side do not match, cause unknown; some may be repeats, others may stem from another dose, organism or construct than stated.

Chains of the proteins cited; added tags and fusions are not shown.
UniProt Q96EB6, whole entry: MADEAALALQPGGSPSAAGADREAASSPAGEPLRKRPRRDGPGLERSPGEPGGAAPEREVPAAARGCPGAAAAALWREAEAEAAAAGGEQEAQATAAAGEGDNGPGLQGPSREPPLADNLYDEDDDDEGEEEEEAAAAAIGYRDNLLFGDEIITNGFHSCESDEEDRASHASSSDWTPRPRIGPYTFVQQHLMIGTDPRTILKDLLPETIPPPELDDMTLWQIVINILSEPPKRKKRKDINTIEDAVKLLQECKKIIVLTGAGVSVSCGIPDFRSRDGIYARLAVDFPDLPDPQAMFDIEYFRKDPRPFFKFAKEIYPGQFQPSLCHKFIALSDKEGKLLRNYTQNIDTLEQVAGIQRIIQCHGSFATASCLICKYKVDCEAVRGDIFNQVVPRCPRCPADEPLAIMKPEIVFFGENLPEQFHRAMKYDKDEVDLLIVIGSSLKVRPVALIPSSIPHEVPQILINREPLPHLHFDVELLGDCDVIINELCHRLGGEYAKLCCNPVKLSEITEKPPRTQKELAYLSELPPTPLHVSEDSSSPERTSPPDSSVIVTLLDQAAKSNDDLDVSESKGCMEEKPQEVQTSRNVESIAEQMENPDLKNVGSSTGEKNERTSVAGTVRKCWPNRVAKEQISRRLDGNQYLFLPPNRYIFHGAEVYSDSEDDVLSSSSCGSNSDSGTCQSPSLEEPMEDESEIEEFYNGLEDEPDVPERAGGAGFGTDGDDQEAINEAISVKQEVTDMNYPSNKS

Biological target: SIRT1 (Homo sapiens, UniProt Q96EB6)
Assay: Continuous PNC1-GDH-coupled assay of SIRT1-catalyzed deacetylation of Ac-Arg-His-Lys-Lys^Ac-X with STACs
Format: biochemical
Settings: [SRT]o = 5 μM, [peptide]o ≦ Km, [NAD+] = 70 μM

SMILES: COc1cc(C(=O)Nc2ccccc2-c2cn3c(CN4CCNCC4)csc3n2)cc(OC)c1OC
- Relative Velocity, X=AMC (Ac-Arg-His-Lys-Lys^Ac-AMC): inhibits and 0.6
- Relative Velocity, X=Trp-NH2 (Ac-Arg-His-Lys-Lys^Ac-Trp-NH2): activates and 1.6
